The record followed here is PMC5374404.

The experiment deals with T1, Drosophila Sak/PLK4 Polo-Box-3 domain (aa 657-745), tag cleaved (Drosophila melanogaster) (UniProt O97143).
T1 sequence: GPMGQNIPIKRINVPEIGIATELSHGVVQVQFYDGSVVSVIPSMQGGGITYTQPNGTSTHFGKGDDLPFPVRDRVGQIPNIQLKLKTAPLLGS
Nature of the experiment: SEC; analytical gel filtration, S75 10/300; untagged PB3 and N-terminally His-lipoyl tagged CCD mixed 30 min before injection, 500 µM each; 50 mM Tris pH 7.5, 150 mM NaCl, 2 mM DTT, 1 ml/min; both purified.

Results are given in words; binding and its absence hold for the method and conditions named. Tags and fused reporters may be left off the sequences shown.

With NKSDLAALVSLVESVRHEQQQLRNLCEMILEQQQRAK (domain or fragment, UniProt Q9XZ31 193-229) [His-lipoyl-tagged Drosophila Ana2 coiled-coil domain (aa 193-229)], the binding entry was “no binding (tested: 500 µM)”.
